Laboratory results reported in paper PMC8565065.

Biological target: T1, low-density lipoprotein receptor-related protein 3 (LRP3), endogenous in human frontal cortex (human (endogenous in frontal cortex)) (UniProt O75074)
T1 sequence: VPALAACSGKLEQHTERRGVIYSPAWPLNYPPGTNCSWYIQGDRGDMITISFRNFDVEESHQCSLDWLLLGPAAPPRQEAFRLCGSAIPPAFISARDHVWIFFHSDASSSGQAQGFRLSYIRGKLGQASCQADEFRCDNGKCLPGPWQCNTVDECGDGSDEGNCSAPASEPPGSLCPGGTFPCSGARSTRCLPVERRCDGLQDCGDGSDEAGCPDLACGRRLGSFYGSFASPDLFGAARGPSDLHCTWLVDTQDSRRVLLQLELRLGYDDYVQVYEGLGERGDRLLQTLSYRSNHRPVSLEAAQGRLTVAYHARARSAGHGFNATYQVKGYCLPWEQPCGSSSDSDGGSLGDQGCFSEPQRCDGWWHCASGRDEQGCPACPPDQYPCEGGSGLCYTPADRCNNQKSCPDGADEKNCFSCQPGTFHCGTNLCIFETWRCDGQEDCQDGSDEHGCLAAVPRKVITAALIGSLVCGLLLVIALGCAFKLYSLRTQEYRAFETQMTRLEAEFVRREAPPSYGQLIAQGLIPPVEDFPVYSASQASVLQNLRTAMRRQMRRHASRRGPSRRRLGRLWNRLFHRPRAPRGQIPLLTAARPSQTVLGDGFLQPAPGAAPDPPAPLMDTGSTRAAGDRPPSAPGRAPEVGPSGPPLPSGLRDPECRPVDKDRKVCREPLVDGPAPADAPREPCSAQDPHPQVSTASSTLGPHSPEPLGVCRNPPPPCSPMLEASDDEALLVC
Assay: co-IP; human frontal cortex extracts (100 μL; MA and AD-related pathology cases) incubated 2.5 h at room temperature with magnetic beads coupled to an anti-C-terminal LRP3 antibody; mouse IgG as negative control; input, bound and unbound fractions blotted

binding: binds
Substance: amyloid precursor protein (APP), endogenous in human frontal cortex

Results are given in words; binding and its absence hold for the method and conditions named. Binding seen in cells or lysates may run through a third protein. A result given as binding can be weak or reduced; the word gives no strength.
